# Assay results from article PMC12170185.
# The chains behind the UniProt entries cited, without tags or fusion partners. Where a name states a change or a piece, a line headed by the entry shows the natural chain unless it says otherwise.
# UniProt Q9HAU5: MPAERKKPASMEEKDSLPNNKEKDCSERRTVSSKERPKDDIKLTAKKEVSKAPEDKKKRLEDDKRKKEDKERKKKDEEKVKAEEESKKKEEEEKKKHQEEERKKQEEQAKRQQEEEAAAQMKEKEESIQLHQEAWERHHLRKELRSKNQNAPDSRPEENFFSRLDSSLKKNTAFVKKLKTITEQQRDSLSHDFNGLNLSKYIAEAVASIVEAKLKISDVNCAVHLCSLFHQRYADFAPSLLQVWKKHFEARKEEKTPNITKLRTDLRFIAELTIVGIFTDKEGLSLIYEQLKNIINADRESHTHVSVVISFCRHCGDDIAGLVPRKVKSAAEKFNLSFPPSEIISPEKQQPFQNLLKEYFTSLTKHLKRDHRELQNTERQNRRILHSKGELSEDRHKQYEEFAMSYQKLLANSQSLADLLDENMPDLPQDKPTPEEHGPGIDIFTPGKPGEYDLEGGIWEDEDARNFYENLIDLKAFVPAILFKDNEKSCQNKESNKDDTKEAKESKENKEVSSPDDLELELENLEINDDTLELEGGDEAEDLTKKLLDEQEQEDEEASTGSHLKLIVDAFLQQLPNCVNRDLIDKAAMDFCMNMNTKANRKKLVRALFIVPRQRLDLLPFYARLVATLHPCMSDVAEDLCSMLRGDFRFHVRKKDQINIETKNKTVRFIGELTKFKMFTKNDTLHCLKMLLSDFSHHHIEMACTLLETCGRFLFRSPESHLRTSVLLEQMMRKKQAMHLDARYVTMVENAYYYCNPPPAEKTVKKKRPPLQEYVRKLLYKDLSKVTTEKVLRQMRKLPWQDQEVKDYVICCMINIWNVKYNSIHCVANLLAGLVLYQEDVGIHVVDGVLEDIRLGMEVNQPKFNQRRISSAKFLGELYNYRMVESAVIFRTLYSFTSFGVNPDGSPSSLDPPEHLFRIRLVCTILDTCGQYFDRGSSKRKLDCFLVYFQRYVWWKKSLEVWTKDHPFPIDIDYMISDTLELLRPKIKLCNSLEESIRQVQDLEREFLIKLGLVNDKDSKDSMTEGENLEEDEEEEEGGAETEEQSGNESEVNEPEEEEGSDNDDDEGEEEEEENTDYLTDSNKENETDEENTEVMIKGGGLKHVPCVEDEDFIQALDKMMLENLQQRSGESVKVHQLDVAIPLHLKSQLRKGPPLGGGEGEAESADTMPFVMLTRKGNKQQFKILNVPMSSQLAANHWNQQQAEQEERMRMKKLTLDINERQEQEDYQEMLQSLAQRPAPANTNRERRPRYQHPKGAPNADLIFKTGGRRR
# Results are given in words; binding and its absence hold for the method and conditions named.
# Tests used:
# Test in all cases: native gel or EMSA; the EMSA gels stained for protein with Coomassie; UPF2 variants with no RNA, with ss-RNA or with hp-RNA (250 nM each); shift of the protein bands looked for; both purified
# [1] = target: UPF2 MIF4G domain-1 (residues 120-486) (UniProt Q9HAU5)
# [2] = target: UPF2 MIF4G domain-2 (residues 455-757) (UniProt Q9HAU5)
# [3] = target: UPF2 MIF4G domain-3 (residues 761-1054) (UniProt Q9HAU5)
# [4] = target: UPF2 MIF4G domains 1 and 2 (residues 120-757) (UniProt Q9HAU5)
# [5] = target: UPF2 MIF4G domains 2 and 3 (residues 455-1054) (UniProt Q9HAU5)
substance,measurement,setting,value
UPF2 MIF4G domain-1 (residues 120-486) (from UniProt Q9HAU5 120-486) (domain or fragment),binding,[1],no binding
UPF2 MIF4G domain-2 (residues 455-757) (from UniProt Q9HAU5 455-757) (domain or fragment),binding,[2],no binding
UPF2 MIF4G domain-3 (residues 761-1054) (from UniProt Q9HAU5 761-1054) (domain or fragment),binding,[3],no binding
UPF2 MIF4G domains 1 and 2 (residues 120-757) (from UniProt Q9HAU5 120-757) (domain or fragment),binding,[4],no binding
UPF2 MIF4G domains 2 and 3 (residues 455-1054) (from UniProt Q9HAU5 455-1054) (domain or fragment),binding,[5],no binding
